{"source": "paper PMC3694852", "target": "T1, FLAG-tagged murine RNase L, expressed from a plasmid (mouse) (UniProt Q05921)", "T1 sequence": "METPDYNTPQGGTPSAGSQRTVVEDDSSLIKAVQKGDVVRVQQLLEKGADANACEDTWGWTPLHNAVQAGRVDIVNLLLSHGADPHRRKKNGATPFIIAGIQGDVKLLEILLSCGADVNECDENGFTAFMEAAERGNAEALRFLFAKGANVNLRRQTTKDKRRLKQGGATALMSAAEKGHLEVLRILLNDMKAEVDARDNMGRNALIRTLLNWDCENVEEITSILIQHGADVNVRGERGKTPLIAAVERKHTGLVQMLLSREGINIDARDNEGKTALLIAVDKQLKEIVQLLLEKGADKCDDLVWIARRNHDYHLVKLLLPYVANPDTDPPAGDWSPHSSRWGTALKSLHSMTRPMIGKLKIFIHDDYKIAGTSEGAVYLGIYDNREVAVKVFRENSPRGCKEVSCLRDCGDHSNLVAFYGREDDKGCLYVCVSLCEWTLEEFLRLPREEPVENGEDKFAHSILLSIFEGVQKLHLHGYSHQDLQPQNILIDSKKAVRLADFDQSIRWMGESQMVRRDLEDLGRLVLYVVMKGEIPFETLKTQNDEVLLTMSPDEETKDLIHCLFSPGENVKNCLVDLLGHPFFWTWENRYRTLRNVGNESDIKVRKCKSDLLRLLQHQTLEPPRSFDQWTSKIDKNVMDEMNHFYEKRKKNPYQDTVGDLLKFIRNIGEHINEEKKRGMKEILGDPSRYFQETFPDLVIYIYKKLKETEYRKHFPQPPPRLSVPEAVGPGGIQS", "experiment": "co-IP; lysates of 293/T cells cotransfected with HA-L* and FLAG-RNase L constructs (murine, human or chimeric); IP with anti-FLAG and anti-HA, protein A/G resin, 4°C; lysis buffer Tris-HCl 50 mM pH 8, NaCl 100 mM, NP40 0.5%, EDTA 2 mM; immunoblot", "note": "No constants are given. Whether binding was seen depends on the method and setting. Binding seen in cells or lysates may run through a third protein. A result given as binding can be weak or reduced; the word gives no strength. Sequences can lack the tags named with a protein."}
{"substance": "HA-tagged L* protein of Theiler's murine encephalomyelitis virus, expressed from a plasmid", "values": [{"measurement": "binding", "value": "binds"}]}
